This is one part of the list.

This assay concerns the target T1, OsSMF1 (Oryza sativa, UniProt Q6ZLB0 1-436).
T1 sequence: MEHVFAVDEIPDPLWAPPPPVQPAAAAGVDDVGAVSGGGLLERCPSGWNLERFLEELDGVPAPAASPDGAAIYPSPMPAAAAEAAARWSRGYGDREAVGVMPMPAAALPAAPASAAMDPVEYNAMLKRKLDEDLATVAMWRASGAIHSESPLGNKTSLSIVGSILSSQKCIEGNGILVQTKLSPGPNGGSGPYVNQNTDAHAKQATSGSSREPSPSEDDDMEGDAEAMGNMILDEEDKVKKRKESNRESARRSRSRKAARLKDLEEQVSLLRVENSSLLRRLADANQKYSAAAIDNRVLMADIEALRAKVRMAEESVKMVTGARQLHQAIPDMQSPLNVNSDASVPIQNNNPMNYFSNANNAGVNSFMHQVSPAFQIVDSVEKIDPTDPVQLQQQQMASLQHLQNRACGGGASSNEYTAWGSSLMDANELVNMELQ
The assay can be described thus: protein-binding microarray (RPBM); PBS, 2% BSA, 51.3 ng/ul salmon testes DNA, 50 uM zinc acetate, 200 nM TF, 25 C, 1 h; high values mean tight binding. The conditions noted are these: protein: recombinant; tags: N-terminal polyhistidine and DsRed monomer fusion (pET32a); chain copies: 2; label: CyDye5-dUTP incorporated in the synthesized complementary strand; 3' TTTTT single-stranded linker to array surface; dsDNA, one strand shown. A digest of the protocol:
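A custom Agilent array was converted to double-stranded form by primer extension with Cy5-dUTP and blocked with 2% BSA. Protein at 200 nM in PBS with 2% BSA, salmon testes DNA and 50 µM zinc acetate was applied for 1 h at 25 °C, followed by washing. The proteins were polyhistidine–DsRed N-terminal fusions of transcription factors, expressed in E. coli BL21-CodonPlus and Ni–NTA-purified. The binding signal is per-feature fluorescence intensity (arbitrary units) from an Axon 4000B scanner.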
In the case of “AGATAGTCCTACATGTCATCCTCACAAGTACTCCCTCCGTCGGAGTCACCTAGTGCAG”, the binding signal was 3650 fluorescence intensity (a.u.).
Under “CAAATCACTCCACTCCTCCACTCATACACCACCACACTGCCGGAGTCACCTAGTGCAG” stands 16700 fluorescence intensity (a.u.); under “GAAGCATGCCAGATGATGTCATAAACCTGGGAGACACCACCGGAGTCACCTAGTGCAG”, 7870 fluorescence intensity (a.u.); under “CCCGTCGTTGTCCACCCCGTCCCATTCCACGACCGTCGTCCGGAGTCACCTAGTGCAG”, 3390 fluorescence intensity (a.u.).
For “GGCCACGAATTACACCAAAATGAATACGTGGATGTAAATTCGGAGTCACCTAGTGCAG”, the binding signal is 3360 fluorescence intensity (a.u.).
Under “AGAATAAAATTATATTTTGCCGTGTAATCCCAATTGCTAACGGAGTCACCTAGTGCAG” stands 3270 fluorescence intensity (a.u.); under “GGAGGAGTGGTCGCCGGGGATCATCGCGCGGCGTCACCGGCGGAGTCACCTAGTGCAG”, 3570 fluorescence intensity (a.u.); under “ACTGGATCTGCCGTCACCAAGCCCCGCCGCCACGGTCGCCCGGAGTCACCTAGTGCAG”, 4280 fluorescence intensity (a.u.).
Under “AAAGTCATGGGGCGAGAGCTGACTGTGCCGTGGGCTCCAGCGGAGTCACCTAGTGCAG” stands 3650 fluorescence intensity (a.u.); under “CCCCAATGCATTTCTCTCTCTACCTGCGTGTTTGACTGCACGGAGTCACCTAGTGCAG”, 3250 fluorescence intensity (a.u.).
With “GGTAGGGATGAGCTCGGCGGCGGCACGTGGCTGGGGTGCACGGAGTCACCTAGTGCAG”, the binding signal is 4410 fluorescence intensity (a.u.).
Under “TCTCATCCGTGACAGTTCGTAACTGTCACCCTTCATAGATCGGAGTCACCTAGTGCAG” stands 3430 fluorescence intensity (a.u.).
For “TTGGGGTTAACCTGGTCTGAATCGGTGATGTGGGAGGGGACGGAGTCACCTAGTGCAG”, the binding signal was 3840 fluorescence intensity (a.u.).
With “CCGATGCTCGGTCAGCAAAACTGCTGATCCGTAAAATCACCGGAGTCACCTAGTGCAG” the figure was 3250 fluorescence intensity (a.u.); with “ACGGTGCGGTGACGCCGGTGGCCGGGTGGGTGCGGGATGCCGGAGTCACCTAGTGCAG”, 3270 fluorescence intensity (a.u.); with “GGGTCATTTGTCCCTTTCTGGAATGAAGTGCTTTGTAAAACGGAGTCACCTAGTGCAG”, 33100 fluorescence intensity (a.u.).
Under “CTCGCCGGCGCGGAGGTCCGCAGCCACACGTGGTGCCCGTCGGAGTCACCTAGTGCAG” stands 4580 fluorescence intensity (a.u.).
With “GATAACAAACGCACGGTTCTCATCTTCCATCGTCACTCACCGGAGTCACCTAGTGCAG” the figure was 4290 fluorescence intensity (a.u.); with “CTAGCTACAGTCCCCGCTGCCACCTGTATGCCTACTACTTCGGAGTCACCTAGTGCAG”, 3890 fluorescence intensity (a.u.).
Take “GGCGAGAGCAGCAACCACCGCCGATGTGGCGGGCGAGGCGCGGAGTCACCTAGTGCAG”: the binding signal is 4710 fluorescence intensity (a.u.).
With “TGTTTTGGAACTAAACAGGAGTGAGTGGGAATGTGACACCCGGAGTCACCTAGTGCAG” the figure was 3280 fluorescence intensity (a.u.).
Regarding “TTCAAAAGGTGCCATTGCTAGTCTCAATCTAGTCATTCGTCGGAGTCACCTAGTGCAG”, the binding signal is 3530 fluorescence intensity (a.u.).
Under “AGGACCCGAGCTCGGCGGCGGCGGTGGCGTCAACGTCACACGGAGTCACCTAGTGCAG” stands 3900 fluorescence intensity (a.u.); under “TTTTCATTATGCTTTTGGTTTTATTGGTCAAGGGAATATCCGGAGTCACCTAGTGCAG”, 38600 fluorescence intensity (a.u.); under “TTTAATAATAAAACGTGTCACAATAAAAGAAGTGATATTTCGGAGTCACCTAGTGCAG”, 4150 fluorescence intensity (a.u.).
With “CTCTGCCTCCCTCTCCCTCCCAAATCGCCGAGAAAAGAAGCGGAGTCACCTAGTGCAG” the figure was 6670 fluorescence intensity (a.u.).
Under “CCATTTCGTGCAAGCGAAGGCACCACCCGCCCTGACGCGGCGGAGTCACCTAGTGCAG” stands 4450 fluorescence intensity (a.u.).
On to “CAAGGCCCACTTAGCTGCTGACACATGGGCCCCGGCCCGCCGGAGTCACCTAGTGCAG”, for which the binding signal is 6160 fluorescence intensity (a.u.).
With “GATTCGCATTTCTTGTTGGAATCTGATTCGTATCCCTTCTCGGAGTCACCTAGTGCAG” the figure was 3340 fluorescence intensity (a.u.); with “CAATACACTGCGGACAACCAAGAATTGGCCGCCCAGTTCGCGGAGTCACCTAGTGCAG”, 38000 fluorescence intensity (a.u.); with “CTGCTGCCAACCCATCCCCAACACGCAACATCTCTCTGCCCGGAGTCACCTAGTGCAG”, 4800 fluorescence intensity (a.u.).
Under “TTGCCATGCATGTGATAAGCCTACATGTGGAGGAGTAGATCGGAGTCACCTAGTGCAG” stands 3140 fluorescence intensity (a.u.); under “AAGTACCTTGTACCTAGATTGGTCTGATACCTATAGGTACCGGAGTCACCTAGTGCAG”, 4620 fluorescence intensity (a.u.).
Under “GAGGTAATTCCTCCTTTAATTTGTGTAAACAAATCTCAGCCGGAGTCACCTAGTGCAG” stands 25600 fluorescence intensity (a.u.); under “CCCTCCCTCCGCCTCCGCCCATCCAATTTCTTACCCCGTTCGGAGTCACCTAGTGCAG”, 3230 fluorescence intensity (a.u.).
Consider “ATAGGGGCACTTCTTATAACCTGGTGGCAGGTGTGGCTTGCGGAGTCACCTAGTGCAG”, for which the binding signal is 4490 fluorescence intensity (a.u.).
In the case of “TCTCTCGTCGGCTCGTCGCCGGCGCGCCACCTCCGCCGCCCGGAGTCACCTAGTGCAG”, the binding signal is 3310 fluorescence intensity (a.u.).
“AACAGTGAATCGTACACGTAGCTAGCAGCTAGCTATCTGCCGGAGTCACCTAGTGCAG”: the binding signal is 4790 fluorescence intensity (a.u.).
With “CTAACTACACACGCAGGGCAGGCACACAACACAGTCAGCTCGGAGTCACCTAGTGCAG” the figure was 36700 fluorescence intensity (a.u.); with “ACAAGACGCAATGTATGTATGACAAGTGGGTATATATATTCGGAGTCACCTAGTGCAG”, 3310 fluorescence intensity (a.u.); with “GTATTCTAAGATAAAGGGATGATGTATATATGCGTTGTAGCGGAGTCACCTAGTGCAG”, 3680 fluorescence intensity (a.u.).
Under “TTTAACACCATACAAGAGGAGGCTGGTGTCGGTGCTTGTCCGGAGTCACCTAGTGCAG” stands 17600 fluorescence intensity (a.u.).

Values taken from PMC7819943, “Rice protein-binding microarrays: a tool to detect cis-acting elements near promoter regions in rice”.
